Values from PubChem BioAssay AID504784 (Drosophila RNAi Screening Center, 2011).
The screen tested about 17,000 reagents; this is an unselected part of those with a known target gene and a result. 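Each column is one replicate's B-score; the combined score over replicates was not deposited, so single values may mislead.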 The numbers tell different reagents against one gene apart. Names joined by + are all predicted targets of the reagent.

Screen: 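Fly genes whose silencing alters how much lipid cells keep in droplets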 (primary screen)
Cells: Drosophila Kc167 embryonic cells
Knock-down reagent: long dsRNA against Drosophila genes, about 250 ng dsRNA per well
Timing: 4 days
Challenge: cells fed 400 µM oleic acid bound to BSA
Detection: 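Microscope images give a droplet-to-nucleus area ratio, taken as log and converted to a screen-wide B-score; higher values mean greater lipid storage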
Reading the numbers: droplet/nuclear area B-score: higher = more stored lipid (overstorage)

| predicted target | reagent | droplet/nuclear area B-score, replicate 1 | droplet/nuclear area B-score, replicate 2 | droplet/nuclear area B-score, replicate 3 |
| --- | --- | --- | --- | --- |
| CG11790 | 1 | -1.93 | -0.128 | – |
| Cnb (Centrobin) | 1 | -1.68 | -3.09 | – |
| MsR2 + CG13802 (retired record) | 1 | -0.156 | 0.771 | – |
| MsR2 + CG13802 (retired record) | 2 | -0.0705 | -0.439 | – |
| MsR2 + CG13802 (retired record) | 3 | 1.36 | 1.63 | – |
| aux (auxilin) | 1 | 0.907 | -0.0734 | 1.08 |
| rha | 1 | 0.4 | – | – |
| CG15635 | 1 | 0.439 | -1.1 | 0.0237 |
| CG15635 | 2 | -2.26 | -0.944 | – |
| CG4009 | 1 | -0.871 | -1.13 | – |
| CG15465 | 1 | -0.648 | 0.661 | – |
| p115 | 1 | -0.483 | 0.649 | – |
| CG31730 | 1 | 0.468 | 0.796 | – |
| Rcd-1r + CG13102 | 1 | 0.561 | 1.6 | – |
| CG17159 + CG17162 | 1 | -0.306 | 1 | – |
| CG17159 + CG17162 | 2 | -0.485 | -1.77 | – |
| GlyRS (Glycyl-tRNA synthetase) | 1 | 1.26 | -0.0187 | -0.433 |
| CG13728 | 1 | 0.576 | 0.998 | – |
| CG30440 | 1 | -0.289 | 1.06 | – |
| CG30440 | 2 | -0.0871 | 0.899 | – |
| CG30440 | 3 | 1.61 | 1.03 | – |
| CG17030 | 1 | -0.902 | 0.117 | – |
| CG1090 | 1 | 1.1 | -1.42 | -1.31 |
| CG1090 | 2 | -1.67 | 1.33 | – |
| CG31910 + snoRNA:Me28S-G2743 (retired record) | 1 | -0.303 | -2.13 | – |
| Polr3F (RNA polymerase III subunit F) | 1 | 0.335 | 2.58 | – |
| BCAS2 | 1 | -0.733 | -0.344 | – |
| MED27 (Mediator complex subunit 27) | 1 | 0.583 | 1.18 | – |
| CG12464 | 1 | -0.626 | -0.805 | – |
| CG13074 | 1 | 0.00718 | -0.865 | – |
| CG31709 | 1 | -0.385 | -0.105 | – |
| CG14177 (retired record) | 1 | -0.00201 | 0.17 | -0.606 |
| CG10307 | 1 | 0.174 | -0.0196 | – |
| CG9897 + asRNA:CR42742 | 1 | 0.248 | -0.0596 | – |
| mfas (midline fasciclin) | 1 | -0.528 | -5.62 | – |
| Fmo-1 (Flavin-containing monooxygenase 1) | 1 | 0.4 | 1.66 | – |
| Acf (ATP-dependent chromatin assembly factor large subunit) | 1 | 0.85 | -0.681 | – |
| Tina-1 (Troponin C-akin-1) | 1 | -0.649 | -1.41 | – |
| CG43707 | 1 | -0.672 | -0.0654 | – |
| CG43707 | 2 | -1.96 | -0.507 | – |
| CG2061 | 1 | -0.999 | -0.582 | 0.3 |
| Phax (Phosphorylated adaptor for RNA export) | 1 | 0.209 | -0.397 | – |
| Tdrd3 (Tudor domain containing 3) | 1 | -0.911 | -2.53 | – |
| CG31816 | 1 | -1.24 | -0.91 | – |
| stai (stathmin) | 1 | 0.178 | -1.97 | – |
| CG15362 | 1 | 1.75 | 1.12 | – |
| CG2767 | 1 | -1.63 | 0.746 | – |

Next part, starting with the last 5 of the part before.
| predicted target | reagent | droplet/nuclear area B-score, replicate 1 | droplet/nuclear area B-score, replicate 2 | droplet/nuclear area B-score, replicate 3 |
| --- | --- | --- | --- | --- |
| Tdrd3 (Tudor domain containing 3) | 1 | -0.911 | -2.53 | – |
| CG31816 | 1 | -1.24 | -0.91 | – |
| stai (stathmin) | 1 | 0.178 | -1.97 | – |
| CG15362 | 1 | 1.75 | 1.12 | – |
| CG2767 | 1 | -1.63 | 0.746 | – |
| Nab2 (Nuclear polyadenosine RNA-binding 2) | 1 | 2.3 | -1.36 | – |
| eIF3g2 (eukaryotic translation initiation factor 3 subunit g2) | 1 | 1.49 | -0.897 | – |
| GstE12 (Glutathione S transferase E12) | 1 | -0.0924 | -0.769 | – |
| CG43775 | 1 | 0.737 | -0.633 | – |
| CG13116 | 1 | 0.0893 | -0.587 | -0.901 |
| CG13116 | 2 | 0.357 | -0.656 | – |
| topi (matotopetli) | 1 | -0.425 | 0.744 | – |
| tefu (telomere fusion) | 1 | -0.217 | 1.88 | – |
| moody | 1 | -1.25 | -0.0327 | – |
| Spt7 | 1 | 0.0083 | -0.669 | – |
| CG30203 | 1 | -0.592 | 0.552 | – |
| CG32198 | 1 | 1.16 | 0.0264 | – |
| CG10226 | 1 | 1.32 | 1.22 | – |
| CG3982 | 1 | -0.29 | -0.00132 | – |
| CG3982 | 2 | -0.00268 | -0.134 | – |
| wts (warts) | 1 | -0.211 | 0.374 | – |
| wts (warts) | 2 | 2.83 | -0.8 | – |
| Alp4 (Alkaline phosphatase 4) | 1 | -0.487 | 1.67 | – |
| Pcl (Polycomblike) | 1 | -2.04 | -0.337 | – |
| Prosalpha6T (Proteasome alpha6 subunit, Testis-specific) | 1 | -0.368 | -0.0867 | – |
| CG10359 | 1 | 0.118 | 0.194 | – |
| CG10801 | 1 | -2.12 | 0.301 | – |
| Teh2 (tipE homolog 2) | 1 | 1.12 | 0.0256 | – |
| CG14818 | 1 | -0.101 | -0.961 | – |
| CG15576 | 1 | 0.681 | -0.0799 | – |
| CG9346 | 1 | -2 | -1.54 | – |
| CG10472 | 1 | -0.984 | 0.0754 | – |
| fj (four-jointed) | 1 | 0.195 | -0.596 | – |
| CG30127 (retired record) | 1 | 0.25 | 0.184 | – |
| CG30127 (retired record) | 2 | 0.746 | -1.91 | – |
| Hydr1 (alpha/beta hydrolase 1) | 1 | -0.0571 | 0.564 | – |
| lin-28 | 1 | – | 1.29 | – |
| CG4269 | 1 | 0.0708 | -1.78 | – |
| bib (big brain) | 1 | 1.29 | 0.573 | – |
| CG5758 | 1 | -0.139 | 0.877 | -0.268 |
| CG5758 | 2 | 0.318 | 1.45 | – |
| hyx (hyrax) | 1 | 0.0147 | -1.13 | – |
| Mal-A4 (Maltase A4) | 1 | -0.117 | -0.773 | – |
| CtIP (CTBP-interacting protein) | 1 | -0.0468 | 0.000777 | – |
| Nckx30C | 1 | -1.54 | 0.781 | – |
| Nckx30C | 2 | -0.707 | 0.0805 | – |
| Nckx30C | 3 | 0.111 | 0.0598 | – |
| Nckx30C | 4 | 2.63 | -1.7 | – |
| CG18540 | 1 | -2.76 | 0.816 | – |
| CG6621 | 1 | -0.0189 | 0.332 | – |
| SoxN (SoxNeuro) | 1 | -2 | -2.03 | -0.269 |
| SoxN (SoxNeuro) | 2 | 0.78 | -0.0123 | – |
| CG31808 | 1 | -0.778 | -0.532 | – |
| CG42335 | 1 | -1.54 | 0.0391 | – |
| CG42335 | 2 | 0.347 | -0.0972 | – |
| CG32170 | 1 | 0.657 | -1.14 | – |
| Jon65Aiv (Jonah 65Aiv) | 1 | -0.885 | -0.303 | – |
| CG1542 | 1 | -0.501 | 2.02 | – |
| MSBP (membrane steroid binding protein) | 1 | 0.164 | -0.328 | -1.66 |
| Sbp2 (SECIS-binding protein 2) | 1 | 0.0582 | -0.595 | – |
| lncRNA:CR32658 (long non-coding RNA:CR32658) | 1 | 0.414 | 0.116 | 0.247 |
| SrpRbeta (Signal recognition particle receptor beta) | 1 | -0.707 | -0.328 | – |
| Poxm (Pox meso) | 1 | 0.23 | 1.87 | 0.00297 |
| Poxm (Pox meso) | 2 | -0.449 | -0.635 | – |
